PubChem BioAssay AID1259254, NCATS, 2017

Screen: 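Genome-wide screen for genes that prevent DNA re-replication in cancer cells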 (primary screen)
Cells: human HCT116 colorectal cancer cells
Reagents: single siRNA against human genes
Duration: 3 days
Measured: 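Nuclei stained with Hoechst and imaged; cell-cycle phase assigned by DNA content; G2 share scaled per plate, non-targeting siRNA 0%, GMNN siRNA 100%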
Scale: G2 robust z-score: higher = more G2 cells, more excess DNA replication
Hit rule: 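Active siRNAs have a G2 robust z of 5 or more median absolute deviations over the median, which in these data means about 38% or higher of GMNN control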
In all, the deposit lists about 59,000 reagents; this is an unselected part. In the full data, about 1,550 (2.6%) got an active call. 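G2 share is only a proxy for re-replication; each gene was hit by three separate siRNAs, and active genes were retested.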 Reagents against one gene are numbered here. Not all columns of the deposit are shown. No sequences are given here. Not stated in the record: the amount of reagent.

How did the screen score TSPYL5 #1?
G2 robust z-score: -0.0919; outcome: inactive

For TSPYL5 #2, what does the deposit list?
G2 robust z-score: 0.462; outcome: inactive

How did the screen score TSPYL5 #3?
G2 robust z-score: -0.352; outcome: inactive

With CLDN16 #1, what does the deposit list?
G2 robust z-score: -0.194; outcome: inactive

With CLDN16 #2, what was measured?
G2 robust z-score: 1.05; outcome: inactive

Which result is listed for CLDN16 #3?
G2 robust z-score: 2.7; outcome: inactive

What did the screen give for ZNF181 #1?
G2 robust z-score: 0.732; outcome: inactive

For ZNF181 #2, how do the results read?
G2 robust z-score: 0.34; outcome: inactive

Which result is listed for ZNF181 #3?
G2 robust z-score: 2.59; outcome: inactive

Which result is listed for SPAG1 #1?
G2 robust z-score: 0.692; outcome: inactive

What is on record for SPAG1 #2?
G2 robust z-score: 1.26; outcome: inactive

What did the screen give for SPAG1 #3?
G2 robust z-score: 1.11; outcome: inactive

What did the screen give for PSG4 #1?
G2 robust z-score: 1.04; outcome: inactive

Which result is listed for PSG4 #2?
G2 robust z-score: 3.84; outcome: inactive

For PSG4 #3, what does the deposit list?
G2 robust z-score: -0.436; outcome: inactive

Which result is listed for SELENOT #1?
G2 robust z-score: -0.727; outcome: inactive

Which result is listed for SELENOT #2?
G2 robust z-score: -0.27; outcome: inactive

For SELENOT #3, what was measured?
G2 robust z-score: -0.106; outcome: inactive

With SHOC1 #1, what was measured?
G2 robust z-score: 2.96; outcome: inactive

With SHOC1 #2, what does the deposit list?
G2 robust z-score: -0.19; outcome: inactive

What is on record for SHOC1 #3?
G2 robust z-score: 0.529; outcome: inactive

Which result is listed for TTC36 #1?
G2 robust z-score: -0.394; outcome: inactive

How did the screen score TTC36 #2?
G2 robust z-score: -0.419; outcome: inactive

For TTC36 #3, how do the results read?
G2 robust z-score: 0.979; outcome: inactive

Reformatted: results already given.
| target | siRNA no. | G2 robust z-score | outcome |
| --- | --- | --- | --- |
| SHOC1 | 3 | 0.529 | inactive |
| TTC36 | 1 | -0.394 | inactive |
| TTC36 | 2 | -0.419 | inactive |
